These are yes or no findings as the source states them, for the method shown. For part of these data: In cells and extracts the contact can be indirect. For part of these data: A result given as binding can be weak or reduced; the word gives no strength. Tags and fused reporters may be left off the sequences shown.

The target of experiment [1] is TuMV 6K2 protein, bait fusion from pBT3-STE-6K2 (Turnip mosaic virus). Briefly: two-hybrid; DUAL membrane system (a variant of the yeast two-hybrid assay for membrane proteins); bait in pBT3-STE, prey in pPR3-N; yeast NMY51; growth on SD/-Leu/-Trp/-His/-Ade at 30°C for 2 days.
In experiment [2] the target is 6K2-HA (Turnip mosaic virus). Briefly: co-IP; two tagged proteins transiently coexpressed in N. benthamiana leaves for 48 h; cleared lysate in 50 mM Tris pH 7.5, 150 mM NaCl, 10% glycerol, 0.1% Nonidet P-40, 5 mM DTT; immunoprecipitated with HA antibodies and protein G Sepharose at 4°C; detected by His antibodies.
Experiment [3] concerns the target 6K2-HA (Turnip mosaic virus). Briefly: co-IP; Syp71-His, 6K2-HA and untagged Vap27-1 transiently coexpressed together in N. benthamiana leaves; cleared lysate immunoprecipitated with HA antibodies; detected by His antibodies.

B1: Syp71, prey fusion from pPR3-N-Syp71 (protein, UniProt Q9SF29 1-266)
chain: MTVIDILTRVDSICKKYDKYDVDKQREANISGDDAFARLYGAFETQIETALEKAELVTKEKNRAAAVAMNAEIRRTKARLSEEVPKLQRLAVKRVKGLTTEELAARNDLVLALPARIEAIPDGTAGGPKSTSAWTPSSTTSRPDIKFDSDGRFDDDYFQESNESSQFRQEYEMRKIKQEQGLDMISEGLDALKNMASDMNEELDRQVPLMDEIDTKVDRATSDLKNTNVRLKDTVNQLRSSRNFCIDIVLLCIVLGIAAYLYNVLK
Consider B1, for which, in experiment [1], the binding entry is recorded as “no binding”.

B2: Vap27-1-His (protein, UniProt Q8VZ95 1-256)
chain: MSNIDLIGMSNRDLIGMSNSELLTVEPLDLQFPFELKKQISCSLYLTNKTDNNVAFKVKTTNPKKYCVRPNTGVVLPRSTCEVLVTMQAQKEAPSDMQCKDKFLLQGVIASPGVTAKEVTPEMFSKEAGHRVEETKLRVTYVAPPRPPSPVHEGSEEGSSPRASVSDNGHGSEFSFERFIVDNKAGHQENTSEARALITKLTEEKQSAIQLNNRLQRELDQLRRESKKSQSGGIPFMYVLLVGLIGLILGYIMKRT
On to B2, for which, in experiment [2], the binding result was “binds”.

B3: untagged Vap27-1 (protein, UniProt Q8VZ95 1-256)
chain: B2 chain
As for B3, the binding result in experiment [3] was “binds”.

(Values after publication PMC3656112.)
